Each structure is given as a SMILES string. The list shows only some results of the screen, not a fair sample: it is rich in T/C values a quarter to a half above the control, in often repeated tests (any T/C) and in doses without a T/C. Other doses and runs of a compound stand elsewhere. T/C gives the treated animals as a percentage of the vehicle group. Some entries give survivors of the animals treated and no T/C: the source holds a T/C of zero for them, seemingly a mark for toxic or unscored doses. Some survivor counts are full or nearly so, which does not show that the dose was tolerated: the source hardly ever lists a survival T/C far under the control, and the zero likely stands for such cases as well. Counts of survivors are from the toxicity check (mostly the fifth day) where no day follows; animals may have died later. Schedule codes are those of the source, read here as Q, the interval in days (D) or hours (H), X, the number of doses. Counts like (3×) stand for listed records that agree. Some entries hold several experiments; their values stand side by side, smallest first. For survival time, the PubChem record calls one and a half times the control and up active, and a quarter to a half above the control has no call in these data; cut-offs in other NCI protocols can differ. Some T/C values are followed by the survivors on the day toxicity was checked, most often the fifth; without a count, all were alive then.

The assay deals with L1210 leukemia ip in BDF1 mice, survival T/C. Description: NCI In Vivo Anticancer Drug Screen. Data for tumor model L1210 Leukemia (intraperitoneal) in B6D2F1 (BDF1) mice. The conditions noted are these: T/C endpoint: mean survival time, higher T/C = longer survival.
[1] abbreviates: dose: 100.0 mg/kg/injection, schedule: Q01DX001 (ip), vehicle: carboxymethylcellulose (CMC).
Setting [2] is: dose: 200.0 mg/kg/injection, schedule: Q01DX001 (ip), vehicle: carboxymethylcellulose (CMC).
Where [3] appears, read: dose: 100.0 mg/kg/injection, schedule: Q04DX003 (ip), vehicle: saline with Tween-80.
Setting [4] is: dose: 100.0 mg/kg/injection, schedule: Q01DX009 (ip), vehicle: saline with Tween-80.
[5] abbreviates: dose: 200.0 mg/kg/injection, schedule: Q04DX003 (ip), vehicle: saline.
Where [6] appears, read: dose: 400.0 mg/kg/injection, schedule: Q04DX003 (ip), vehicle: saline.
The mark [7] stands for this setting: dose: 100.0 mg/kg/injection, schedule: Q04DX002 (ip), vehicle: saline with Tween-80.
The mark [8] stands for this setting: dose: 100.0 mg/kg/injection, schedule: Q04DX003 (ip), vehicle: saline.
The mark [9] stands for this setting: dose: 200.0 mg/kg/injection, schedule: Q01DX009 (ip), vehicle: saline with Tween-80.
Where [10] appears, read: dose: 400.0 mg/kg/injection, schedule: Q01DX009 (ip), vehicle: saline with Tween-80.
The mark [11] stands for this setting: dose: 300.0 mg/kg/injection, schedule: Q01DX001 (ip), vehicle: saline.

Take `COc1cc(N(CCCl)CCCl)c(OC)cc1/C=N\Nc1nnc(C)n1N`: the T/C was 126 % of control [4 of 6 alive] (dose: 10.0 mg/kg/injection, schedule: Q01DX015 (ip), vehicle: carboxymethylcellulose (CMC)); 141 % of control [5 of 6 alive] (dose: 18.0 mg/kg/injection, schedule: Q01DX015 (ip), vehicle: carboxymethylcellulose (CMC)); 126 % of control under setting [1]; 147 % of control (dose: 150.0 mg/kg/injection, schedule: Q01DX001 (ip), vehicle: carboxymethylcellulose (CMC)); 147 % of control under setting [2]. The survivor count (dose: 50.0 mg/kg/injection, schedule: Q01DX015 (ip), vehicle: carboxymethylcellulose (CMC)) is listed as 6 of 6.
Regarding `CC(=O)OC(C#N)c1cccc([N+](=O)[O-])c1` (stereo unspecified), the survivor count reads like this: (dose: 50.0 mg/kg/injection, schedule: Q04DX002 (ip), vehicle: Klucel (hydroxypropylcellulose) (HPC)) 0 of 3; (dose: 100.0 mg/kg/injection, schedule: Q04DX002 (ip), vehicle: Klucel (hydroxypropylcellulose) (HPC)) 0 of 3; (dose: 200.0 mg/kg/injection, schedule: Q04DX002 (ip), vehicle: Klucel (hydroxypropylcellulose) (HPC)) 0 of 3; (dose: 400.0 mg/kg/injection, schedule: Q04DX002 (ip), vehicle: Klucel (hydroxypropylcellulose) (HPC)) 0 of 3.
On to `Cc1ccc(N=Cc2cc(I)cc(I)c2O)cc1.Cc1ccc(N=Cc2cc(I)cc(I)c2O)cc1.[Co]`, for which, under setting [3], the survivor count is listed as 3 of 3.
Regarding `CCOC(=O)c1cc(Cl)cc(Cl)c1N=NN(C)C`, the T/C under setting [4] is 125 % of control.
As to `COc1ccc(C=Nc2ccc(OC(C)=O)cc2)cc1`, the T/C runs as follows: (dose: 400.0 mg/kg/injection, schedule: Q01DX009 (ip), vehicle: other) 132 % of control; (dose: 600.0 mg/kg/injection, schedule: Q01DX009 (ip), vehicle: other) 141 % of control.
Consider `CCN(CC)CCOc1c(C(C)C)cccc1C(C)C`, for which the survivor count is on record as 3 of 6 (dose: 100.0 mg/kg/injection, schedule: Q01DX009 (ip), vehicle: saline); 0 of 6 (dose: 200.0 mg/kg/injection, schedule: Q01DX009 (ip), vehicle: saline); 1 of 6 under setting [5]; 0 of 6 under setting [6].
Regarding `S=C(NCc1ccccc1)C(=S)NCc1ccccc1`, the survivor count (dose: 400.0 mg/kg/injection, schedule: Q04DX003 (ip), vehicle: Klucel (hydroxypropylcellulose) (HPC)) is listed as 0 of 3.
On to `CCOc1ccc(N=Cc2cccc([N+](=O)[O-])c2)cc1`, for which the T/C reads like this: under setting [7], 94, 95, 101 % of control; (dose: 200.0 mg/kg/injection, schedule: Q04DX002 (ip), vehicle: saline with Tween-80) 87, 92, 94, 105 % of control; (dose: 400.0 mg/kg/injection, schedule: Q04DX002 (ip), vehicle: saline with Tween-80) 91, 94 (2×), 97 % of control. Also, the survivor count under setting [7] is listed as 3 of 3.
Consider `CC1CC2OC(=O)C(O)(CO)C2CC2(C)C(=O)C=CC12` (stereo unspecified), for which the survivor count is reported as 1 of 3 (dose: 200.0 mg/kg/injection, schedule: Q04DX002 (ip), vehicle: saline) and 0 of 3 (dose: 400.0 mg/kg/injection, schedule: Q04DX002 (ip), vehicle: saline).
On to `CCC1(CC)COC(=O)NC1=O`, for which the survivor count runs as follows: (dose: 50.0 mg/kg/injection, schedule: Q01DX009 (ip), vehicle: saline with Tween-80) 0 of 6; (dose: 50.0 mg/kg/injection, schedule: Q04DX003 (ip), vehicle: saline) 0 of 4; under setting [4], 0 of 6; under setting [8], 0 of 4; under setting [9], 0 of 6; under setting [10], 0 of 6.
`C=CCOCC(O)C[As](=O)(O)c1ccc(OC)cc1` (stereo unspecified): the survivor count runs as follows: (dose: 50.0 mg/kg/injection, schedule: Q04DX003 (ip), vehicle: saline with Tween-80) 1 of 6; under setting [3], 0 of 6 (2×); (dose: 200.0 mg/kg/injection, schedule: Q04DX003 (ip), vehicle: saline with Tween-80) 0 of 6; (dose: 400.0 mg/kg/injection, schedule: Q04DX003 (ip), vehicle: saline with Tween-80) 0 of 6.
`CC(=O)OC(CC[P+](c1ccccc1)(c1ccccc1)c1ccccc1)(C(=O)c1ccccc1)c1ccccc1` (stereo unspecified): the survivor count was 4 of 6 (dose: 200.0 mg/kg/injection, schedule: Q01DX001 (ip), vehicle: saline with Tween-80) and 0 of 6 (dose: 400.0 mg/kg/injection, schedule: Q01DX001 (ip), vehicle: saline with Tween-80).
Take `NC(=S)N/N=C(/Cc1ccccc1)CC(O)(C(F)(F)F)C(F)(F)F`: the survivor count runs as follows: (dose: 200.0 mg/kg/injection, schedule: Q01DX009 (ip), vehicle: gum acacia) 0 of 6; (dose: 400.0 mg/kg/injection, schedule: Q04DX003 (ip), vehicle: gum acacia) 0 of 6.
Take `C#CCn1c(=O)c2c(ncn2C)n(C)c1=O`: the survivor count by setting is: (dose: 12.5 mg/kg/injection, schedule: Q04DX003 (ip), vehicle: saline) 1 of 3; (dose: 25.0 mg/kg/injection, schedule: Q04DX003 (ip), vehicle: saline) 0 of 3; under setting [8], 2 of 3; under setting [5], 0 of 3; under setting [6], 0 of 3.
Take `C[n+]1ccc(/C=C/c2csc3ccccc23)cc1`: the survivor count (dose: 80.0 mg/kg/injection, schedule: Q01DX001 (ip), vehicle: carboxymethylcellulose (CMC)) is 2 of 4; the survivor count under setting [1] is on record as 2 of 4; the survivor count under setting [2] was 0 of 4; the survivor count (dose: 400.0 mg/kg/injection, schedule: Q01DX001 (ip), vehicle: carboxymethylcellulose (CMC)) is reported as 0 of 4.
For the compound `O=[N+]([O-])c1cc(COc2ccc(Cl)c(Cl)c2)ccc1Cl`, the T/C (dose: 100.0 mg/kg/injection, schedule: Q04DX002 (ip), vehicle: saline) was 126 % of control.
With `COc1cc2c(cc1OC)C1=[N+](CCC1)CC2`, the survivor count under setting [11] is reported as 2 of 6.
With `Cc1ccc2c([nH]1)c(C)cc1nc3ccccc3c12`, under setting [1], the survivor count is reported as 2 of 4.
With `CCCC(=O)Nc1cc([N+](=O)[O-])ccc1O`, the T/C under setting [4] was 97, 106 (2×), 108 % of control; the T/C under setting [9] is 95 and 100 % of control. The survivor count under setting [9] is recorded as 3 of 3; the survivor count under setting [10] was 0 of 3 and 2 of 6.
For `CN(C)CCCNC1=C(Cl)C(=O)C(NCCCN(C)C)=C(Cl)C1=O`, the survivor count reads like this: (dose: 200.0 mg/kg/injection, schedule: Q04DX003 (ip), vehicle: acetone) 6 of 6; (dose: 400.0 mg/kg/injection, schedule: Q04DX003 (ip), vehicle: acetone) 0 of 6.
In the case of `CC1(O)CSC(C)(O)CS1` (stereo unspecified), for the setting “dose: 25.0 mg/kg/injection, schedule: Q04DX002 (ip), vehicle: saline with Tween-80”, the survivor count was 3 of 3.
For the compound `C=C(C)COc1ccccc1`, the survivor count (dose: 400.0 mg/kg/injection, schedule: Q01DX009 (ip), vehicle: Klucel (hydroxypropylcellulose) (HPC)) was 2 of 3.
Turning to `NC(=O)c1c2n(c3ncnc(N)c13)C1OC(CO)C(O)C1S2` (stereo unspecified), the survivor count runs as follows: (dose: 100.0 mg/kg/injection, schedule: Q01DX009 (ip), vehicle: water) 5 of 5; (dose: 200.0 mg/kg/injection, schedule: Q01DX009 (ip), vehicle: water) 5 of 5; (dose: 400.0 mg/kg/injection, schedule: Q01DX009 (ip), vehicle: water) 4 of 5.
With `CCOP(=O)(Cc1ccc(N(CCI)CCI)cc1)OCC`, under setting [11], the survivor count is on record as 2 of 6.
`OCCCCCCCC[n+]1ccccc1`: the survivor count is on record as 0 of 6 (dose: 50.0 mg/kg/injection, schedule: Q01DX001 (ip), vehicle: saline); 0 of 6 (dose: 100.0 mg/kg/injection, schedule: Q01DX001 (ip), vehicle: saline); 0 of 6 (dose: 200.0 mg/kg/injection, schedule: Q01DX001 (ip), vehicle: saline).
